Data reported in the supplement of paper PMC12259267, “Disruption of the KLHL37–N-Myc complex restores N-Myc degradation and arrests neuroblastoma growth in mouse models” (The Journal of Clinical Investigation, 2025).
Counter-ions that a name gives are not always drawn. The list shows a part of the results. Most values come without repeats; read them as rough.

Tested on: SK-N-BE(2)
Test: inhibition of N-Myc immunofluorescence signal per cell relative to control (fraction); higher = stronger N-Myc protein reduction
Details: 1 µM; 9 h

Compound | inhibition of N-Myc immunofluorescence signal per cell
Cc1ncsc1-c1ccc([C@H](C)NC(=O)[C@@H]2C[C@@H](O)CN2C(=O)[C@@H](N)C(C)(C)C)cc1 [(S,R,S)-AHPC-Me (dihydrochloride)] | -0.402
CC1(C)CC[C@]2(NC(=O)C(C)(F)F)CC[C@]3(C)[C@H](C(=O)C=C4[C@@]5(C)C=C(C#N)C(=O)C(C)(C)[C@@H]5CC[C@]43C)[C@@H]2C1 [Omaveloxolone (RTA-408)] | 0.736
Cc1cc(Sc2nnnn2CCN(C)C)n2nc(SCc3ccc(Cl)cc3)nc2n1 | 0.214
Cc1ccc(/C=C2\SC(=S)N(CCCCCC(=O)Nc3ccc(C(=O)O)c(O)c3)C2=O)cc1 | -0.0132
COc1cc2c(NC3CCN(C(C)C)CC3)nc(C3CCCCC3)nc2cc1OCCCN1CCCC1 | 0.169
